Where a chain is given by its changes, count along the chain named. Names and notes keep the numbering of the source. These are yes or no findings as the source states them, for the method shown. In cells and extracts the contact can be indirect. Binding can be weak; no strength is given. Where a sequence is shown, tags or fusion partners need not be part of it. Blank lines part the entries; values can stand above or below the binder they belong to.
Target: E-cadherin (UniProt P12830)
Assay: co-IP; lysates of transiently transfected HEK-293T cells (1% Triton X-100, 10 mM Tris pH 7.6, 50 mM NaCl, 0.1% BSA); Protein A-Sepharose beads coated with anti-E-cadherin or anti-RFP antibody, or unrelated antibody (Ig), 2 h at 4 °C; Western blot against the HA-tag

Sequences of proteins named here, by UniProt entry; tags and fusion partners are left off. A change or cut given only in a name is not applied to a line headed by its entry.
UniProt P12830: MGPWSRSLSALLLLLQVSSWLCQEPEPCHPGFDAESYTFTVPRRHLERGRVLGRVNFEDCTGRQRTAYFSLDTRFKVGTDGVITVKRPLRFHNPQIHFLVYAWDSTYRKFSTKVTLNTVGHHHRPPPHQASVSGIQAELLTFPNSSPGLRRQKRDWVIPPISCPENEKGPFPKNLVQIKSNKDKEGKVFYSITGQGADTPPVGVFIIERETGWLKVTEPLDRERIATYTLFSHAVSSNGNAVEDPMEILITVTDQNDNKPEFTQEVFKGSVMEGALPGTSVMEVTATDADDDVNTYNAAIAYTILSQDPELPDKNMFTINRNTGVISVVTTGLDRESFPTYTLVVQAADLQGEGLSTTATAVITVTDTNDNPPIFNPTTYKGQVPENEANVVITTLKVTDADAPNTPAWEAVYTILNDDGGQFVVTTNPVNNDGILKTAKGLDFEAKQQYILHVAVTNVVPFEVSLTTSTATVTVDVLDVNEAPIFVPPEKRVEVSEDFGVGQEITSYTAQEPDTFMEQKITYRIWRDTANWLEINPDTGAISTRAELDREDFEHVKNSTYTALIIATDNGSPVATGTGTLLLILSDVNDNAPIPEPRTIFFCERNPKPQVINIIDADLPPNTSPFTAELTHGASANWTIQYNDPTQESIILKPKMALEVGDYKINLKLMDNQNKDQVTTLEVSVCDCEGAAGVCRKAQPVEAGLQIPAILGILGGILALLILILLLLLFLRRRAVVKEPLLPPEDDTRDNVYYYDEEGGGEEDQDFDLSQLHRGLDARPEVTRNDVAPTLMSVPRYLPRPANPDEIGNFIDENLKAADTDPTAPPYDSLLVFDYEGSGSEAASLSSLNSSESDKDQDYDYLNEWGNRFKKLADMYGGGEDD

binding: binds
B1: catalytically inactive S186A derivative of mouse RHBDL2 (triple N-terminal HA-tag) (enzyme, UniProt A2AGA4 1-302)
chain: MAVAHEMEMESVNLNMEREGKEEPEEEKMKGNGEGKDFPRSRKVHRIVSKWMLPEPVRRTYLERANCLPPPLFIILISLAELAVFIYYAVWKPQKQWITLDTGILESPLTYCPEKREEAWRFISYMLVHAGVQHIVGNLLMQIVLGIPLEMVHKGLRVGLVYLAGVLAGSLASSIFDPLKSLVGAAGGVYALMGGYFMNVIVNFREMIPAFGIVRLLVIILIVASDMGFALYRRFFVPANGSPVSFAAHIAGGFAGMSIGYTVFSCFDKTLLKDPRFWIAIAAYVACLLFAVFFNIFLSPAN

binding: no binding
B2: mouse RHBDL2, wild-type (triple N-terminal HA-tag) (enzyme, UniProt A2AGA4 1-302)
chain: B1 chain with A186S

From PMC6928865
